Among all 320,000 compounds or so, about 2,100 (0.66%) were called active. The inconclusive results got no clear call from the source; some entries with a clear call stand among them for comparison. Calls follow the shape of the dose curve; as a rule, active = well fitted inhibition curve with a large enough effect in the signal ratio, with a control signal flat (not every such curve was filed as active); inconclusive = small, poorly fitted or top-dose-only effect, or effect the other way, or a change in a side signal; inactive = flat fitted curve, though single readings scatter; the % refers to the signal ratio. Where the call is inconclusive, the potency comes from a doubtful curve fit.
assay: qHTS Assay for Lipid Storage Modulators in Drosophila S3 Cells; conditions: BODIPY lipid droplet fluorescence, 18-24 h, cells fed with added oleic acid; lipid storage change, negative = inhibition: at 46.1 µM (top of the series) unless noted
Method in brief: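 Drosophila S3 cells got compounds at several concentrations plus oleic acid (400 uM solution). Laser-scanning cytometry with 488 nm excitation read lipid droplets at 500-530 nm and cells at 575-640 nm. Percent activity was relative to 20 uM Triacsin C.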
% is scaled to controls: 0 for no effect and ±100 for the full control effect; potency is read from the fitted curve at half-maximal effect.

Row | Structure (SMILES) | lipid storage change, negative = inhibition | Potency
1 | CCOC(=O)[C@H]1[C@H]2COc3ccc(Cl)cc3[C@@H]2N2C(=O)c3ccc(Cl)cc3NC(=O)[C@@]12C | inconclusive: -23.9% | 
2 | CC(=O)N1N=C(N)SC12CCCC2 |  | inconclusive: 9.2 µM [falling, partial curve, poor fit]
3 | COc1cccc(C(=O)NCCS(=O)(=O)N(C)Cc2ccccc2)c1 | inconclusive: 30.1% | 
4 | CCn1c(CCNS(=O)(=O)c2ccccc2Br)nnc1SC |  | inconclusive: 0.116 µM [activator, single point]
5 | O=C(CN1C(=O)CCSc2ccccc21)Nc1ccc2c(c1)OCCO2 |  | inconclusive: 0.731 µM [activator, full curve, poor fit]
6 | CCCCNC(=O)[C@H](Cc1c[nH]c2ccccc12)NC(=O)c1ccccc1Cl | inconclusive: 33.2% | 
7 | O=C1c2cccc3cccc(c23)C(=O)N1Cc1ccccc1 | inconclusive: 0.791% | 
8 | CCOCCSc1n[nH]c(=O)n1CCc1ccccc1 | inconclusive: -2.43% | 
9 | COCCn1c(C(C)C)nc2ccccc21 | inconclusive: -11.5% | 
10 | O=C1CCCC2=C1C1O[C@](c3ccsc3)(Cc3c1ccc1ccccc31)O2 | inconclusive: 10.5% [at 9.22 µM] | 
11 | CCCC(CCC(=O)NC1CCCCC1)C(=O)O (configuration not stated) |  | inconclusive: 0.731 µM [falling, single point]
12 | Cc1cc(C)c(NC(=O)CNC(=O)Cc2sc(C)nc2-c2ccc(F)cc2)c(C)c1 |  | inconclusive: 0.517 µM [rising, partial curve]
13 | Cc1nn(C)cc1/C=N\NC(=O)Cc1ccc([N+](=O)[O-])cc1 | inconclusive: 1.83% | 
14 | CCOc1ccc(C2/C(=C(/O)c3ccc(OC)cc3)C(=O)C(=O)N2c2cc(C)on2)cc1OC (configuration not stated) | inconclusive: 2.91% | 
15 | CCCC(=O)N(c1ccc2oc(=O)sc2c1)S(=O)(=O)c1cccs1 | inconclusive: 5.92% | 
16 | Cc1ccc(CNC(=O)C2CC3Cn4c(nc5cc6ccccc6cc54)C3N2C)o1 (configuration not stated) | inconclusive: 13.6% | 
17 | O=C(CC1C(=O)NCCN1Cc1ccccc1C(F)(F)F)NCCN1CCCCC1=O (configuration not stated) |  | inconclusive: 29.1 µM [rising, single point]
18 | CN1C(=O)/C(=C/c2ccccc2Cl)Sc2ccc(C(=O)NCc3cccnc3)cc21 | inactive | 
19 | Cc1ccc(Sc2nc(C)c([N+](=O)[O-])c(C)c2C#N)cc1 |  | inconclusive: 7.31 µM [activator, partial curve]
20 | COc1ccc(NC(=O)c2sc(NC(=O)COc3ccccc3)nc2C)cc1 | inconclusive: 20.3% | 
21 | COc1ccc(NC(=O)c2cnn(-c3ccccc3)c2C)c(OC)c1 |  | inconclusive: 0.58 µM [falling, single point]
22 | CCOc1ccc(C2/C(=C(/O)c3ccc4c(c3)CC(C)O4)C(=O)C(=O)N2CC2CCCO2)cc1 (configuration not stated) |  | inconclusive: 29.1 µM [activator, single point]
23 | COC(=O)[C@H](Cc1ccccc1)NS(=O)(=O)N[C@@H](Cc1ccccc1)C(=O)OC |  | inconclusive: 10.3 µM [activator, partial curve]
24 | CNCc1cc2ccc(C)cc2[nH]c1=O | inconclusive: -31.5% | 

A few values from the entries so far:
CN1C(=O)/C(=C/c2ccccc2Cl)Sc2ccc(C(=O)NCc3cccnc3)cc21 | lipid storage change, negative = inhibition: inactive
Cc1ccc(CNC(=O)C2CC3Cn4c(nc5cc6ccccc6cc54)C3N2C)o1 (configuration not stated) | lipid storage change, negative = inhibition: inconclusive: 13.6%
O=C1CCCC2=C1C1O[C@](c3ccsc3)(Cc3c1ccc1ccccc31)O2 | lipid storage change, negative = inhibition: inconclusive: 10.5% [at 9.22 µM]
Cc1ccc(Sc2nc(C)c([N+](=O)[O-])c(C)c2C#N)cc1 | Potency: inconclusive: 7.31 µM [activator, partial curve]

Next part

Row | Structure (SMILES) | lipid storage change, negative = inhibition | Potency
25 | CC1CN(C(=O)c2cccc(S(=O)(=O)N3CCN(c4ccccc4)CC3)c2)CC(C)O1 (configuration not stated) | inactive | 
26 | O=C(Nc1ccc(Cl)c(Cl)c1)Nc1ccccc1NS(=O)(=O)c1cccs1 |  | inconclusive: 29.1 µM [falling, single point]
27 | O=C(CCN1C(=O)c2ccccc2C1=O)OCN1C(=O)c2ccccc2C1=O | inconclusive: -44.8% | 
28 | O=C1c2ccccc2C(Nc2ccc(F)c(Cl)c2)N1Cc1ccco1 (configuration not stated) | inconclusive: 15.5% | 
29 | O=C(NCc1ccco1)C1CN(S(=O)(=O)c2ccccc2)CCN1S(=O)(=O)c1ccccc1 (configuration not stated) | inconclusive: 9.1% | 
30 | COc1ccc(-c2nc(CN3CCN(c4ncnc5ccccc45)CC3)c(C)o2)c(OC)c1 |  | inconclusive: 16.4 µM [cytotoxic, partial curve]
31 | O=C(Nc1ccccc1Cl)c1cc2ccccc2o/c1=N\O |  | inconclusive: 2.31 µM [falling, full curve]
32 | O=C(/C=C/c1cccc([N+](=O)[O-])c1)NC(=S)Nc1ccc(CN2CCOCC2)cc1 | inconclusive: -5.93% | 
33 | CCc1nc(N2CCCC2C(=O)O)c2oc3ccccc3c2n1 (configuration not stated) |  | inconclusive: 29.1 µM [falling, single point]
34 | O=C(CCc1nnc(COc2ccccc2)o1)NCc1ccccc1C(F)(F)F |  | inconclusive: 20.6 µM [falling, single point]
35 | O=C(CS(=O)(=O)Cc1ccccc1)Nc1ncccn1 |  | inconclusive: 4.61 µM [falling, full curve, poor fit]
36 | Nc1nnc(SCc2ccc(F)cc2)s1 | inconclusive: -4.55% | 
37 | CCN(CC)c1nc(C#N)cc(-c2ccc(OC)cc2)n1 | inconclusive: 27% | 
38 | CN(C)c1ccc(N2CC(C)(C)C2=O)cc1 | inconclusive: -5.04% | 
39 | COc1ccc(-c2c(C#Cc3ccsc3)c3cc(-c4ccc(OC)nc4)ccc3n2C)cc1 |  | inconclusive: 0.58 µM [activator, partial curve]
40 | O=C(Nc1nc2ccccc2[nH]1)C1CCCO1 (configuration not stated) | inconclusive: 5.65% | 
41 | O=C1CCCC(=O)C1=C1SCCS1 | inconclusive: -6.93% | 
42 | Cc1cccc2cc(CN(CC3CCCO3)C(c3nnnn3Cc3ccco3)C(C)C)c(=O)[nH]c12 (configuration not stated) | inconclusive: -50.3% | 
43 | Cc1cccc(CNc2ncnc3ccc(-c4ccc5c(ccn5C)c4)cc23)c1 | inconclusive: -28.1% | 
44 | CCOC(=O)CN1C(c2ccc(O)cc2)Nc2ccc(Br)cc2C1c1ccccc1 (configuration not stated) |  | inconclusive: 29.1 µM [falling, single point]
45 | O=S(=O)(c1cc(C(F)(F)F)ccc1Cl)N1CCCCCC1 |  | inconclusive: 29.1 µM [cytotoxic, single point]
46 | CCN(CC(=O)Nc1c(F)cccc1F)C(=O)c1nn(C)c(=O)c2ccccc12 | inconclusive: -19.1% | 
47 | Cn1nc(-c2ccccc2)c2ncc(C(F)(F)F)cc21 | inconclusive: 44.2% | 

— PubChem BioAssay AID2685 (National Center for Advancing Translational Sciences (NCATS), 2010)
